This is an account of results in article PMC7028094.

The target in experiment [1] is T1, muscle-specific receptor tyrosine kinase (MuSK) p.Ala617Val (human) (UniProt O15146).
T1 sequence: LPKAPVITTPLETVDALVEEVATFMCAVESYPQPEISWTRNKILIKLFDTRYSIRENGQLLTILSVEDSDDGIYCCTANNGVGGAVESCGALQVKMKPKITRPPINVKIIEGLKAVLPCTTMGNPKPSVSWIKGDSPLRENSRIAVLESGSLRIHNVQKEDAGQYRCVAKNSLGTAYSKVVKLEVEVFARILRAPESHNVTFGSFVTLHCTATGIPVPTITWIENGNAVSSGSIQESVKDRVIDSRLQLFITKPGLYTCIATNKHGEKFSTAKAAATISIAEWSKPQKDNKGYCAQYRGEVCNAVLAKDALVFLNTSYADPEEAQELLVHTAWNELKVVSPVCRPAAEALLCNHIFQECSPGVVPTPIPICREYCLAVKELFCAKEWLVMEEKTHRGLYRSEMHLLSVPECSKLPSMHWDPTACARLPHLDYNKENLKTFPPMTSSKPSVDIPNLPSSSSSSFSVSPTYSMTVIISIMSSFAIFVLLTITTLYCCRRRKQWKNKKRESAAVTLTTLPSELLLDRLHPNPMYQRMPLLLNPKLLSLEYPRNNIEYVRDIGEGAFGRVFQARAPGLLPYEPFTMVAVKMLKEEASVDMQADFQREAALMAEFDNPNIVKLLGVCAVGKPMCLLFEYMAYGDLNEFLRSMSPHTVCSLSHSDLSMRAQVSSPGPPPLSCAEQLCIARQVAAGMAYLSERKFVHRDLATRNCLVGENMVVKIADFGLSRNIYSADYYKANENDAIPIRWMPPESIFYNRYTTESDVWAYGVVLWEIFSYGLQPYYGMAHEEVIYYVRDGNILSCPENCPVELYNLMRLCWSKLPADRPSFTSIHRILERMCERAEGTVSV
Kind of experiment: co-IP; immunoprecipitation from the surface of transiently transfected HEK-293T cells: cells incubated 48 hr after transfection with 5 µg antibody at 37°C for 3 hr, washed, lysed in cold lysis buffer (10 mM Tris pH 7.5, 100 mM NaCl, 1 mM EDTA, 1% Triton X-100), Dynabeads, western blot. On the technique in general: Immunoblotting shows a protein as a band on a membrane.

Experiment [2] deals with T2, muscle-specific receptor tyrosine kinase (MuSK), wild type (human) (UniProt O15146).
T2 sequence: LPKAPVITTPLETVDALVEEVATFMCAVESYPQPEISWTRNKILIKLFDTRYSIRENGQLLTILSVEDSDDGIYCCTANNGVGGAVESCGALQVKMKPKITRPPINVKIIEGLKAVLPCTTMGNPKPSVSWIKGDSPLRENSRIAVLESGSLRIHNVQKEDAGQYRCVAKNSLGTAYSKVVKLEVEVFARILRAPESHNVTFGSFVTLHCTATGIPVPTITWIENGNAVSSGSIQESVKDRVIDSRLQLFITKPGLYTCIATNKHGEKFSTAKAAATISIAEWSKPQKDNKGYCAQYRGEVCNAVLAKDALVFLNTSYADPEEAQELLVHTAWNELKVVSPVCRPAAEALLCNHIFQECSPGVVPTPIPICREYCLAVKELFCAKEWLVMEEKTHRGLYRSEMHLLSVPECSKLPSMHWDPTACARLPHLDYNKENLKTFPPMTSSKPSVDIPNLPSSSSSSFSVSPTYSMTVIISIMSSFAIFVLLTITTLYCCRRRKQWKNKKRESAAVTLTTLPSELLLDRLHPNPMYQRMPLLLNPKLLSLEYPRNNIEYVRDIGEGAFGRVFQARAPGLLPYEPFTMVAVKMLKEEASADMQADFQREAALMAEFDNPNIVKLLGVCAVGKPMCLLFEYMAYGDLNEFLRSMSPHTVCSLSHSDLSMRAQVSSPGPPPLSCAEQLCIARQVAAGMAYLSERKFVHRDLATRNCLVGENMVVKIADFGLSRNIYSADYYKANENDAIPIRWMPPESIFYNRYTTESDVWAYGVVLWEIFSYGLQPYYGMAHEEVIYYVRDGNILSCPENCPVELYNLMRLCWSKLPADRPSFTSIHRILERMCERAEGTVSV
Described as above.

No constants are given. Whether binding was seen depends on the method and setting. Binding seen in cells or lysates may run through a third protein. Some entries that bind do so weakly or less than the wild type. Sequences can lack the tags named with a protein.

B1: DOK7, EGFP-tagged (protein, UniProt Q18PE1 1-504)
chain: MTEAALVEGQVKLRDGKKWKSRWLVLRKPSPVADCLLMLVYKDKSERIKGLRERSSLTLEDICGLEPGLPYEGLVHTLAIVCLSQAIMLGFDSHEAMCAWDARIRYALGEVHRFHVTVAPGTKLESGPATLHLCNDVLVLARDIPPAVTGQWKLSDLRRYGAVPSGFIFEGGTRCGYWAGVFFLSSAEGEQISFLFDCIVRGISPTKGPFGLRPVLPDPSPPGPSTVEERVAQEALETLQLEKRLSLLSHAGRPGSGGDDRSLSSSSSEASHLDVSASSRLTAWPEQSSSSASTSQEGPRPAAAQAAGEAMVGASRPPPKPLRPRQLQEVGRQSSSDSGIATGSHSSYSSSLSSYAGSSLDVWRATDELGSLLSLPAAGAPEPSLCTCLPGTVEYQVPTSLRAHYDTPRSLCLAPRDHSPPSQGSPGNSAARDSGGQTSAGCPSGWLGTRRRGLVMEAPQGSEATLPGPAPGEPWEAGGPHAGPPPAFFSACPVCGGLKVNPPP
B1: the binding result in experiment [1] and in experiment [2] was “binds” each time.
